# PubChem BioAssay AID540256 (National Center for Advancing Translational Sciences (NCATS), 2011)
# In all, about 300,000 compounds went through this assay and about 3,700 (1.2%) were called active. The shares of active, inactive and inconclusive entries below differ from those in the screen. Calls follow the shape of the full dose curve; tested in HEK293 cells. A potency beside an inconclusive call is a rough fit, not a confirmed value.
# Test: qHTS for Inhibitors of binding or entry into cells for Lassa Virus; also: nearly all actives have a fitted effect of over 50% in size
# Details: Lassa virus pseudotype entry inhibition, cell reporter; activity change, negative = inhibition: at 37.9 µM (top of the series) unless noted
# % is scaled to controls: 0 for no effect and ±100 for the full control effect; potency is read from the fitted curve at half-maximal effect.
Compound,Potency,"activity change, negative = inhibition"
CCN(CC)CC(=O)Nc1ccc2c(c1)N(C(=O)CN(CC)CC)c1ccccc1CC2,"inconclusive: 10.3 µM [inhibitor, partial curve, poor fit]",–
Cc1ccc(-c2cn3c(=O)cc(C)[nH]c3n2)cc1,active: 14.6 µM,–
O=C(Cc1ccc(Cl)cc1)NCCc1csc2nc(-c3ccccc3F)nn12,–,inactive: 5.24% [at 46.1 µM]
O=C(c1ccco1)N1CCN(c2nc3ccccc3c(=O)n2-c2ccccc2)CC1,"inconclusive: 29.1 µM [inhibitor, single point]",–
CCOC(=O)COc1ccc2nsnc2c1,–,inactive: 8.58%
Cc1ccc(NC(=O)c2cc3c(s2)CCCC3)cc1S(=O)(=O)Nc1ccccc1Cl,active: 11.2 µM,–
CC(Cn1cnc2ccccc21)C(=O)O (stereo not given),"inconclusive: 25.9 µM [activator, partial curve, poor fit]",–
COc1ccc(C(=O)NCC(=O)N/N=C/C(C)=C/c2ccco2)cc1OC,"inconclusive: 29.1 µM [inhibitor, single point]",–
O=C1N/C(=C\c2ccc(N3CCOCC3)c(F)c2)C(=O)N1Cc1ccccc1,"inconclusive: 14.6 µM [inhibitor, partial curve, poor fit]",–
COc1ccc(NS(=O)(=O)c2ccc3c(c2)OCCO3)cc1OC,–,inactive: -14.2% [at 46.1 µM]
CCc1ccccc1S(=O)(=O)Cc1ccc(C(=O)NCCc2ccc(Cl)cc2)o1,"inconclusive: 35.5 µM [inhibitor, single point]",–
O=C(NNc1c2ccccc2nc2ccccc12)C12CC3CC(CC(C3)C1)C2,–,inactive: -2.81%
CN(C)c1cc[n+](CC(=O)Nc2ccc(Oc3ccccc3)cc2)cc1,"inconclusive: 16.4 µM [inhibitor, partial curve]",–
Cc1ccc(C)c(NC(=O)c2nc(S(=O)(=O)Cc3ccc(F)cc3)ncc2Cl)c1,"inconclusive: 12.6 µM [inhibitor, partial curve, poor fit]",–
O=C(/C=C/c1c(F)cccc1Cl)Nc1ccncc1,–,inactive: 1.04%
Cc1ccc(/C=C/C(=O)N2CCN(c3ncccn3)CC2)o1,–,inactive: 10.9%
Cc1ccsc1C(=O)OCc1csc(-c2ccccc2)n1,"inconclusive: 14.1 µM [inhibitor, partial curve, poor fit]",–
CSCCC(NS(=O)(=O)c1ccc2c(c1)oc(=O)n2C)C(=O)NCc1ccc(Cl)cc1 (stereo not given),–,inactive: 0.524% [at 46.1 µM]
CCc1nnc(NC(=O)c2cc(C)oc2C)s1,–,inactive: -19.4% [at 46.1 µM]
CCOC(=O)N1CCN(S(=O)(=O)c2ccc(C(=O)Nc3nnc(C4CC4)o3)cc2)CC1,"inconclusive: 22.4 µM [inhibitor, single point]",–
Cc1ccc(C(=O)Nc2cc(-c3cn4cccnc4n3)ccc2C)cc1C,"inconclusive: 8.91 µM [activator, partial curve, poor fit]",–
CC1Cc2cc(S(=O)(=O)N3CCC(C(=O)NCc4ccco4)CC3)ccc2N1C(=O)C1CCC1 (stereo not given),"inconclusive: 35.5 µM [inhibitor, single point]",–
CCN(CC)c1ccc(NC(=O)c2ccc(S(=O)(=O)N3CCOCC3)cc2)cc1,–,inactive: -17.3%
Cc1ccccc1NC(=O)Cn1nc(C)c2ccccc2c1=O,–,inactive: 6.82%

# Quoted at random: 2 records from the list
Compound,Potency,"activity change, negative = inhibition"
CCc1nnc(NC(=O)c2cc(C)oc2C)s1,–,inactive: -19.4% [at 46.1 µM]
O=C(NNc1c2ccccc2nc2ccccc12)C12CC3CC(CC(C3)C1)C2,–,inactive: -2.81%

# (cont.)

Compound,Potency,"activity change, negative = inhibition"
CCOc1cc2c(cc1OCC)C(C(=O)O)C(c1cc(OC)c(OC)c(OC)c1)N(C)C2=O (stereo not given),–,inactive: -19.3%
COc1cccc(C2C(C(=O)Nc3nc4ccccc4s3)=C(C)NC3=C2C(=O)CC(C)(C)C3)c1OC (stereo not given),"inconclusive: 10 µM [inhibitor, partial curve, poor fit]",–
CCOc1ccccc1NC(=O)COC(=O)c1cc[n+]([O-])cc1,–,inactive: 12.7% [at 46.1 µM]
CC(=O)Nc1ccc(S(=O)(=O)NCCC(=O)OCC(=O)NCc2ccccc2)cc1,–,inactive: 5.73%
CCN(CC(=O)Nc1ccc(NC(C)=O)cc1)C(=O)CN1C(=O)NC2(CCCC2)C1=O,–,inactive: 17%
NC(=S)N=Nc1c(O)n(CCCl)c2ccc(Cl)cc12,"inconclusive: 35.5 µM [inhibitor, single point]",–
Cc1ccc(CNc2cc(C)nc3nc(-c4ccc(C)cc4)nn23)cc1,"inconclusive: 3.55 µM [activator, single point]",–
COC(=O)c1ccccc1NC(=O)CSc1nc2ccccc2nc1Cc1ccc(F)cc1,"inconclusive: 4.47 µM [activator, single point]",–
CCOC(=O)c1c(-c2ccccc2)oc2ccc(OCC(O)CNCCN(C)C)cc12 (stereo not given),"inconclusive: 11.2 µM [inhibitor, partial curve, poor fit]",–
CSc1nc2ccc(NC(=O)c3ccccn3)cc2s1,active: 2 µM,–
CC1=C(C(=O)Nc2cccc(C(=O)NC(C)C)c2)SCCO1,–,inactive: -18.3% [at 46.1 µM]
Cc1ccc(C(=O)OCC(=O)N2CCc3ccccc32)cc1,"inconclusive: 1.83 µM [activator, partial curve, poor fit]",–
CCCC(O)(c1ccc(CC)cc1)C(CN1CCOCC1)c1ccccc1 (stereo not given),"inconclusive: 8.91 µM [inhibitor, partial curve]",–
CCOC(=O)C1=C(C)N(CC)C(=S)NC1c1ccccc1OC(F)F (stereo not given),"inconclusive: 35.5 µM [inhibitor, partial curve, poor fit]",–
COc1ccc(NC(=O)/C=C/c2ccc(Cl)cc2)cc1,"inconclusive: 1.3 µM [activator, full curve]",–
N#C/C(=C\c1cccc(NC(=O)c2ccccc2Cl)c1)C(=O)NCCc1ccccc1,"inconclusive: 17.8 µM [inhibitor, single point]",–
Cc1ccc(N(CC(=O)N2CCc3ccccc32)C2=NC(=O)CS2)cc1,–,inactive: -1.71%
O=C(CC1C(=O)NCCN1CC1CCCCC1)NCc1ccc(F)cc1 (stereo not given),"inconclusive: 6.31 µM [inhibitor, single point]",–
CC1CCCN(C(=O)COc2ccc(Nc3ccccc3)cc2)C1 (stereo not given),–,inactive: -5.66%
Cc1cnc(NC(=O)CN(C)S(=O)(=O)c2ccc(Cl)cc2)s1,–,inactive: 5.37%
CCCNC(=O)c1cc2c3ccccc3n(C)c2s1,"inconclusive: 29.1 µM [inhibitor, single point]",–
Cc1ccc(S(=O)(=O)N/N=C\c2cc([N+](=O)[O-])ccc2Cl)cc1,"inconclusive: 25.9 µM [inhibitor, single point]",–
COc1ccc(/C=C2\SC(=O)N(CCC(=O)Nc3ccc(S(=O)(=O)Nc4nccs4)cc3)C2=O)cc1,"inconclusive: 1 µM [activator, single point]",–
COCc1cc(C)nc(SCC(=O)Nc2cc3c(cc2C#N)OCO3)c1C#N,–,inactive: 1.56%

# Of the compounds above, two contain a cyano group:
Compound,Potency,"activity change, negative = inhibition"
N#C/C(=C\c1cccc(NC(=O)c2ccccc2Cl)c1)C(=O)NCCc1ccccc1,"inconclusive: 17.8 µM [inhibitor, single point]",–
COCc1cc(C)nc(SCC(=O)Nc2cc3c(cc2C#N)OCO3)c1C#N,–,inactive: 1.56%

# Following part.

Compound,Potency,"activity change, negative = inhibition"
CCOC(=O)C1=C(CN2c3ccccc3CC2C)NC(=O)NC1c1ccccc1 (stereo not given),"inconclusive: 29.1 µM [inhibitor, single point]",–
C=CCc1cccc(/C=C/c2cc(=O)c3ccccc3[nH]2)c1O,"inconclusive: 35.5 µM [inhibitor, single point]",–
O=C(N/N=C/c1cc([N+](=O)[O-])ccc1O)C1CCCCC1,"inconclusive: 25.1 µM [inhibitor, single point]",–
CCC(C)C(=O)Nc1nc2ccc(OC)cc2s1 (stereo not given),"inconclusive: 3.16 µM [inhibitor, single point]",–
Cc1ccc(-c2cc(C(=O)Nc3cc(C)ccc3O)no2)cc1,"inconclusive: 7.94 µM [activator, partial curve, poor fit]",–
CNC(=O)c1cc2c(cn1)[nH]c1ccccc12,"inconclusive: 4.11 µM [activator, partial curve, poor fit]",–
CCOC(=O)c1cc(-c2ccc(F)cc2)n(CCC(=O)NC2CCC(C)CC2)c1C (stereo not given),–,inactive: -0.261% [at 46.1 µM]
CNC(=S)N1N=C(c2ccc(OC)cc2)CC1c1ccc(N(C)C)cc1 (stereo not given),"inconclusive: 3.98 µM [inhibitor, partial curve, poor fit]",–
CCCn1cccc(C(=O)Nc2ccc(OC)cc2)c1=O,"inconclusive: 8.91 µM [activator, partial curve, poor fit]",–
CC(C1CC2CCC1C2)N1CC(O)=C(c2nc3ccccc3[nH]2)C1=N (stereo not given),–,inactive: -1.74%
Cc1cc(S(=O)(=O)n2[nH]c(=O)c(CCO)c2C)c(Cl)cc1Cl,"inconclusive: 3.55 µM [inhibitor, full curve]",–
CC1(C)Cc2cccc(OCC(=O)OCc3nnc(-c4ccccc4)o3)c2O1,–,inactive: 17.4%
Nc1c(C(=O)N/N=C/c2ccc(F)cc2)oc2nc(-c3ccccc3)cc(-c3ccco3)c12,"inconclusive: 3.55 µM [inhibitor, partial curve, poor fit]",–
N=C1c2ccccc2CN1NC(=O)c1ccc(F)cc1,–,inactive: 8.29%
Fc1ccc(Nc2nc(-c3cccc(Cl)c3)c3c(n2)-c2ccccc2OC3)c(F)c1,"inconclusive: 8.91 µM [activator, partial curve, poor fit]",–
O=C(NNc1c2ccccc2nc2ccccc12)c1cc2ccccc2cc1O,"inconclusive: 12.6 µM [inhibitor, single point]",–
Cc1ccc(-c2nnc(N3CC(C)OC(C)C3)c3ccccc23)cc1 (stereo not given),"inconclusive: 35.5 µM [inhibitor, single point]",–
CCc1noc(C)c1C(=O)Nc1cc(S(=O)(=O)N2CCOCC2)ccc1OC(C)C,"inconclusive: 5.62 µM [activator, single point]",–
Cc1cccc(NC(=O)Cn2c(=O)n(CC3CCC(C(=O)NCCc4ccccc4)CC3)c(=O)c3ccccc32)c1 (stereo not given),–,inconclusive: 27.9% [activator] [at 46.1 µM]
Nc1ncc2c(n1)-c1ccoc1CC2,"inconclusive: 5.62 µM [inhibitor, single point]",–
COCCn1c(CN2CCC(Cc3ccccc3)CC2)nc2c1c(=O)n(C)c(=O)n2C,"inconclusive: 5.62 µM [inhibitor, full curve, poor fit]",–
COc1ccccc1N(CC(O)CN1C(C)CCCC1C)S(=O)(=O)c1ccccc1 (stereo not given),"inconclusive: 0.794 µM [inhibitor, single point]",–
